# Data as given in paper PMC7819943, “Rice protein-binding microarrays: a tool to detect cis-acting elements near promoter regions in rice”.
# The other results are listed elsewhere or left out.
# Target: T1, OsSMF1 (Oryza sativa, UniProt Q6ZLB0 1-436)
# T1 sequence: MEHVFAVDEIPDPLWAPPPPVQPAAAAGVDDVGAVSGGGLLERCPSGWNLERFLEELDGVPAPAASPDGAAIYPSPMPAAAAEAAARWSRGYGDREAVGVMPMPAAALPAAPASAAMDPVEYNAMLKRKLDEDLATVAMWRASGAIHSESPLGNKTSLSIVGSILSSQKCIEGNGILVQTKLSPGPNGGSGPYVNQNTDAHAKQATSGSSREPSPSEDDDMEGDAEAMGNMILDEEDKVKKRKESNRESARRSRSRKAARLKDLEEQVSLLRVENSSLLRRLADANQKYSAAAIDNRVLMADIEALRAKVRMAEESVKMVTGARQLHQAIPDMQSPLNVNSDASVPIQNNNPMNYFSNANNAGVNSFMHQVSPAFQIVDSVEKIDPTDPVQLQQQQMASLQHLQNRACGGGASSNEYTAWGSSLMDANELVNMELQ
# Experiment: protein-binding microarray (RPBM); PBS, 2% BSA, 51.3 ng/ul salmon testes DNA, 50 uM zinc acetate, 200 nM TF, 25 C, 1 h; high values mean tight binding
# Details: protein: recombinant; tags: N-terminal polyhistidine and DsRed monomer fusion (pET32a); chain copies: 2; label: CyDye5-dUTP incorporated in the synthesized complementary strand; 3' TTTTT single-stranded linker to array surface; dsDNA, one strand shown
# How it was run: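 The binding signal for each feature is its fluorescence intensity in arbitrary units. An Axon 4000B scanner was used to read a custom Agilent array that had been made double-stranded with Cy5-dUTP primer extension, blocked with 2% BSA, incubated at 25 °C for 1 h with 200 nM protein in PBS, 2% BSA, salmon testes DNA and 50 µM zinc acetate, and washed. The protein was an N-terminal polyhistidine–DsRed transcription factor fusion from E. coli BL21-CodonPlus, purified on Ni–NTA.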
row,Sequence,binding signal
1,TCTCGATGGATGACTCGATCGATCGTCATCGTTGGCTGCCCGGAGTCACCTAGTGCAG,6630 fluorescence intensity (a.u.)
2,ATGGGCACGTTTACTTCCTCGGCCAAATAGGAATGGTGTGCGGAGTCACCTAGTGCAG,3160 fluorescence intensity (a.u.)
3,CCTCTTGCCATTAAACAATCCGATTCCACGCAAGCAGCCCCGGAGTCACCTAGTGCAG,12500 fluorescence intensity (a.u.)
4,CTATCTTTCTCAATCTATCCTATTCGATTCTCGTCATCGGCGGAGTCACCTAGTGCAG,4220 fluorescence intensity (a.u.)
5,AGCCTCCAAATCAACCCAGCTGTTCCAACACACACATGAACGGAGTCACCTAGTGCAG,3270 fluorescence intensity (a.u.)
6,TTATCCAAGATGCTTTGCACACGTCACATGAAACCCACTCCGGAGTCACCTAGTGCAG,12100 fluorescence intensity (a.u.)
7,CTGCATCGCACCACGCCCGCATGGTCCCACCACCCGACCGCGGAGTCACCTAGTGCAG,29700 fluorescence intensity (a.u.)
8,CGTGCGGCGGATCGTGGTGGACGCGAGCGGCGGCGGCGACCGGAGTCACCTAGTGCAG,3440 fluorescence intensity (a.u.)
9,AGCAAGGTTCCACACGCTGTCACTGCCGTGTGGGCCATCCCGGAGTCACCTAGTGCAG,4340 fluorescence intensity (a.u.)
10,TGGGAGCGAGGGAGGACCTCTCCGGGAGTAGGAGTAGATGCGGAGTCACCTAGTGCAG,4120 fluorescence intensity (a.u.)
11,TGCTCACCTAACCCACACACGTGGCGCCAAAACCACAGGGCGGAGTCACCTAGTGCAG,9200 fluorescence intensity (a.u.)
12,ATGCTGCCATGGTTCCAGCTCAATAGCTCATCACCATTGCCGGAGTCACCTAGTGCAG,3300 fluorescence intensity (a.u.)
13,TCCTCCGCTAACTAGTCGTGCTCGGTGACGTCGCCGACACCGGAGTCACCTAGTGCAG,3940 fluorescence intensity (a.u.)
14,GCGGGCTGTACACGACGGTGATCGTCTCCTTCCTCACCGGCGGAGTCACCTAGTGCAG,3690 fluorescence intensity (a.u.)
15,TTCTGTGGTGACGTGGACATATCTGGAACCTACGTTTTGCCGGAGTCACCTAGTGCAG,20900 fluorescence intensity (a.u.)
16,TATTAAATTGGCTATAGGTGATTTGGAGCTAATAGTTAGCCGGAGTCACCTAGTGCAG,3210 fluorescence intensity (a.u.)
17,TCTGGGCTGAGGCCGCCGTGAGTCAAATCGACGGAAACCCCGGAGTCACCTAGTGCAG,4890 fluorescence intensity (a.u.)
18,ACACACACCCGGAGAGCGAGCGAGCGCGTGCGCACCGCACCGGAGTCACCTAGTGCAG,3310 fluorescence intensity (a.u.)
19,AGTGTTTCATCTGACATTGATAAGCAGGAGCCAGAGCATGCGGAGTCACCTAGTGCAG,3910 fluorescence intensity (a.u.)
20,GCCCCGCCATTGGCGCCTCCATTGCCACGCTGCCACCATCCGGAGTCACCTAGTGCAG,4990 fluorescence intensity (a.u.)
21,CTTTCCATTGGTTATGACTTACTGACTCACACTGCCAAACCGGAGTCACCTAGTGCAG,4600 fluorescence intensity (a.u.)

# Pulled one by one from the entries so far:
row,Sequence,binding signal
16,TATTAAATTGGCTATAGGTGATTTGGAGCTAATAGTTAGCCGGAGTCACCTAGTGCAG,3210 fluorescence intensity (a.u.)
5,AGCCTCCAAATCAACCCAGCTGTTCCAACACACACATGAACGGAGTCACCTAGTGCAG,3270 fluorescence intensity (a.u.)

# (continued)

row,Sequence,binding signal
1,CAAGGCCAATGCAGACACGCGTACGTTTCACATCACAAGCCGGAGTCACCTAGTGCAG,3730 fluorescence intensity (a.u.)
2,GGGGTGTTAGTTAATTGCATGTATCCGTACGTGACTTGTACGGAGTCACCTAGTGCAG,4360 fluorescence intensity (a.u.)
3,CTGTTCTAGATAGATAAAGATAAAGATTAAATACAGGTACCGGAGTCACCTAGTGCAG,19500 fluorescence intensity (a.u.)
4,GGAGGATTCTTGTCATGGCTCCAAATGTCTGGTAGCATGGCGGAGTCACCTAGTGCAG,4010 fluorescence intensity (a.u.)
5,TCCAACGATGTCACCCTAGCAAAAGGGGCCTGGTAGGGTTCGGAGTCACCTAGTGCAG,3480 fluorescence intensity (a.u.)
6,TGTATCTGCTCAGCCCATCTCAGAAATATACTGGGGCCGACGGAGTCACCTAGTGCAG,22300 fluorescence intensity (a.u.)
7,GAAGCTTCTGGGCCACGCCGCCACAAAAGCCGAAGCGGAACGGAGTCACCTAGTGCAG,3960 fluorescence intensity (a.u.)
8,CGACGATGGAGGAGGTGGAGCGGCGACGGCGGTGGCGGAGCGGAGTCACCTAGTGCAG,8840 fluorescence intensity (a.u.)
9,CCACCCAGCTCCACTCCCAGTTTTGGTGGAGCTGAAACTGCGGAGTCACCTAGTGCAG,3330 fluorescence intensity (a.u.)
10,TTCCTATCGTTACAATTGCTAGTGGTAGGCCATGACACCTCGGAGTCACCTAGTGCAG,3770 fluorescence intensity (a.u.)
11,TAAACAACTTGAGGCACACCACATCACTACCAAGAGAGAGCGGAGTCACCTAGTGCAG,3510 fluorescence intensity (a.u.)
12,CCACACACCATTGCCGCATCATCCACCACCGCCTCCTCAGCGGAGTCACCTAGTGCAG,5210 fluorescence intensity (a.u.)
13,GGCGGTGGATGGTGGTGCGGCGGCAGGAAGGGCGGGAGCGCGGAGTCACCTAGTGCAG,3470 fluorescence intensity (a.u.)
14,TTATCTTGAAGATTCCATAGATAAGATTGCTGACGAGAGTCGGAGTCACCTAGTGCAG,3910 fluorescence intensity (a.u.)
15,AGTCAGTCCACACTCCACACCAGTCTCCATCACAGTTTCCCGGAGTCACCTAGTGCAG,4040 fluorescence intensity (a.u.)
16,TCGCCGACGACTCACGCCGACACGTCGGAAGTCGTTGGCTCGGAGTCACCTAGTGCAG,6960 fluorescence intensity (a.u.)
17,ATCTCGTTCTAAAGGTCGGATATTTATGACGTGTATTAGGCGGAGTCACCTAGTGCAG,12200 fluorescence intensity (a.u.)
18,TCAATTGTGGCGTGAAGTACACATAACCCTTGTTGATGGGCGGAGTCACCTAGTGCAG,3540 fluorescence intensity (a.u.)
19,GAAGAAGAAGCAGCCATCCGAGTCGTCATCGGCGGCGGCGCGGAGTCACCTAGTGCAG,4950 fluorescence intensity (a.u.)
20,GATATGAAAGCAACATTCTTACATGTGGCGGTGAATCATCCGGAGTCACCTAGTGCAG,4080 fluorescence intensity (a.u.)
21,CCAAAACACAAAGCAAACGTCCATCTCCGCAGCTTGCTCCCGGAGTCACCTAGTGCAG,18100 fluorescence intensity (a.u.)
